## Results of single-concentration screens

The chains behind the UniProt entries cited, without tags or fusion partners. Residues count along the entry.
UniProt A4I591, 1-473: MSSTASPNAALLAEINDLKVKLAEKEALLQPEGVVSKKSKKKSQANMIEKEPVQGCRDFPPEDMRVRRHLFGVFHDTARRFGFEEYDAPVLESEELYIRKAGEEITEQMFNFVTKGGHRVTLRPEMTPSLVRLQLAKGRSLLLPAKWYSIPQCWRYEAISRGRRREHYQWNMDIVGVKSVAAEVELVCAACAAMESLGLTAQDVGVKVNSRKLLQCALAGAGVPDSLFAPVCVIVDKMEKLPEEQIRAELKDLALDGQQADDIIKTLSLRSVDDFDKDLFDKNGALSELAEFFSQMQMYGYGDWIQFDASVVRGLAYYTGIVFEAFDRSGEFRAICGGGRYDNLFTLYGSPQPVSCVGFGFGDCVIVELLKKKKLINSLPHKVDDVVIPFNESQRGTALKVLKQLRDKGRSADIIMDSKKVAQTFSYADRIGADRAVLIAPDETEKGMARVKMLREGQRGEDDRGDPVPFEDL
UniProt P9WFT3, whole entry: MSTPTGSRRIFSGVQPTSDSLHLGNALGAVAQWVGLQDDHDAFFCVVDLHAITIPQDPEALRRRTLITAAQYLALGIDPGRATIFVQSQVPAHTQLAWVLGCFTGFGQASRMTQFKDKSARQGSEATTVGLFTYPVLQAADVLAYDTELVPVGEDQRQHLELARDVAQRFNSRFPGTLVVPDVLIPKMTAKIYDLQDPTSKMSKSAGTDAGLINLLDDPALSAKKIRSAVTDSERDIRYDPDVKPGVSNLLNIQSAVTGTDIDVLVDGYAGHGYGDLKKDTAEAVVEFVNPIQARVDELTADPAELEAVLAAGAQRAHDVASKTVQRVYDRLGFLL

The filed quantity is “Percent Effect” (%).
How 0% and 100% were set is not recorded. Most values in the screen are low, and negative values occur.
This is an unselected part of the compounds tested.

A: 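Histidine-tRNA ligase, Leishmania infantum (UniProt A4I591). Enzyme assay of histidyl-tRNA synthetase; the read-out is not stated. Compounds at 30 µM. The record gives no direction; compounds that gave an IC50 in retests scored well above the rest, so higher reads as stronger inhibition. The assay is labelled LdHisRS but filed under L. infantum. Size under these conditions: about 69,000 compounds, about 410 of them at 50% or above in at least one test.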
B: 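Tryptophan-tRNA ligase, Mycobacterium tuberculosis (UniProt P9WFT3). Enzyme assay of tryptophanyl-tRNA synthetase; the read-out is not stated. Tested at 10 µM. Higher most likely means stronger inhibition; the record gives no direction and few retests gave an IC50. Size under these conditions: about 65,000 compounds, about 64 of them at 50% or above in at least one test.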

Result for COCC(=O)N1CCN2C(=O)OC[C@H]2C1 was A: 0%; B: -6.484%. Cc1cccc(-n2cc(C(=O)N3CCCC(n4ccnc4)C3)nn2)c1 (centres undefined) read A: 5.333%; B: 0.5473%. With O=C(CCc1nc2cccnc2[nH]1)Nc1ccc2c(c1)OCC(=O)N2 the screen gave A: 28.09%; B: 2.994%. For O=C(CCn1cc(Cl)cn1)Nc1nncs1 the result was A: 20.59%; B: 11.79%. For Cn1c(Cn2ccnc2)nnc1C1CCCN(c2ncccn2)C1 (centres undefined) the result was A: 13.11%; B: -3.782%. Result for CCCN(Cc1cnn(C)c1)S(=O)(=O)c1ccc(F)c(C#N)c1 was A: 22.45%; B: 5.874%. CC(C)NC(=O)[C@@]12CCO[C@@H]1CCN(Cc1ccc3c(c1)OCO3)C2 gave A: 9.434%.

Result for Cn1cc(CN2CCOC(c3nccnc3-c3cccc(F)c3)C2)cn1 (centres undefined) was A: 2.837%; B: 16.63%. Cc1ccc2[nH]c(CO[C@H]3CN(c4ccc(C#N)cn4)C[C@H]3F)nc2c1 gave A: 69.44%; B: 2.184%. With O=C(O)c1cc(-c2cccnc2)cc(S(=O)(=O)N2CCCCCC2)c1 the screen gave A: 22.86%; B: 1.754%. Cc1noc(C)c1CC(=O)NCC(C)N1CCOCC1 (centres undefined) read A: 12.77%; B: -0.4442%. For O=C(NCc1ccoc1)NC1CCCN(c2ncccn2)C1 (centres undefined) the result was A: 25.71%; B: -6.886%. Result for CCc1c(C)nc2cc(C3CCN(Cc4cccnc4)C3)nn2c1O (centres undefined) was A: 5.208%. CC(NCc1nnc2n1CCCC2)c1nc(-c2cccs2)no1 (centres undefined) gave A: 0%; B: -0.9441%.

Cc1cc(NC(=O)C(C)Nc2ccn(Cc3ccccn3)n2)on1 (centres undefined) gave A: 0%; B: -1.883%. CCC(=O)NCc1cc(Br)c(OC)c(OC)c1 gave A: 18.45%; B: -2.131%. CN(Cc1n[nH]c2c1CCC2)C(=O)c1cc(-c2cccn2C)n[nH]1 read A: 25.3%; B: 3.06%. O=C(c1ccco1)N1C[C@@H]2CN(c3ccccn3)C[C@@H]2C1 read A: 19.42%; B: 9.297%. CSc1ccc(NCC(=O)Nc2c(C)nn(C)c2C)cc1F gave A: 8.889%; B: 3.457%. For N#Cc1nccnc1N1CCC(C(O)c2cccs2)CC1 (centres undefined) the result was A: 17.58%; B: 3.311%. For O=C(N[C@@H]1CN(Cc2cccc(F)c2)C[C@H]1O)c1cscn1 the result was A: 4.348%.

CN1CCN(CC(=O)NCc2ccco2)Cc2ccccc21 gave A: 11.76%; B: 2.676%. With CCOc1ccc(NCC(=O)NCC(=O)N2CCCC2)c(C(F)(F)F)c1 the screen gave A: 20.65%; B: 2.333%. With CC[C@@]1(O)CCN(C(=O)CCc2cnn(C)c2)C[C@H]1O the screen gave A: 8.219%; B: -1.933%. Result for c1cnn(CC2CN(c3ncnc4c3CCC4)CCO2)c1 (centres undefined) was A: 19.74%; B: 3.382%. CN1CCCC1CCn1ccnc1-c1nc(-c2ccccc2)no1 (centres undefined) read A: 38.67%; B: 15.65%. Result for Cc1cnn(CC2CCCCN2CCS(C)(=O)=O)c1 (centres undefined) was A: 3.448%; B: -4.827%. For Cc1[nH]nc(CCC(=O)N2CCc3ncnc(NCCO)c3CC2)c1C the result was A: 10.84%; B: 1.53%.

Cc1noc([C@@]23CCO[C@@H]2CCN(S(=O)(=O)c2cccnc2)C3)n1 read A: 13.51%. With c1cc(CN2CCO[C@H]3[C@H](OCC4CCCC4)CC[C@@H]32)ccn1 the screen gave A: 7.519%; B: 4.272%. COc1ccc2c(c1)CCCN(C(C)C(=O)NC(N)=O)C2 (centres undefined) gave A: 15.83%; B: 1.858%. CC(C)Oc1ccc(C(=O)Nc2nncs2)cn1 gave A: 18.31%; B: -2.321%. Result for Cc1c(CN2CCCC(n3c(=O)oc4ccccc43)C2)cnn1C (centres undefined) was A: -2.899%; B: 12.44%. With CCCNC(=O)CNC(=O)c1scnc1C the screen gave A: 13.27%; B: -5.979%. With CCCn1ncc(CN2C[C@@H]3CCCN3C[C@H]2Cc2ccccc2)c1C the screen gave A: 20.62%.

O=C(c1cocn1)N1C[C@H]2CCC[C@@]2(COc2ccccn2)C1 read A: 20%; B: -1.569%. Result for O=C(N1CCCC1)N1CCc2onc(COc3cccnc3)c2C1 was A: 18%; B: -2.033%. O=C(NC1CC(F)(F)C1)[C@]12COC[C@H]1CN(Cc1cccnc1)C2 gave A: 30%; B: -2.862%. c1cnc(N2CC3(CCN(CC4CCOC4)CC3)c3ccccc32)nc1 (centres undefined) gave A: 8.547%; B: -1.841%. For Cc1cc2n(n1)CC(CNCc1ccccc1-n1cccn1)CN2 (centres undefined) the result was A: 23.21%; B: -5.21%. For CC1CCCCN1C(=O)c1nc2c(n1C(C)C)CCN(C)C2 (centres undefined) the result was A: -1.724%; B: 3.344%. Result for CC(=O)c1ccc(F)cc1-c1cc(NCCO)nc2[nH]ccc12 was A: 12.86%; B: -2.347%.

c1cc(CN2CC[C@H]3O[C@@H](COCC4CCOCC4)CC[C@H]32)ccn1 read A: 22%; B: 13.76%. Result for COCCN1CCC2(CCN(Cc3nccs3)CC2)C1=O was A: 5.66%; B: -0.1049%. Result for COCC(=O)N1CC[C@@H](N2CCN(C)CC2)[C@@H]1Cc1ccccc1 was A: -9.091%; B: -1.569%. For CCN(C1CCN(Cc2ncc(C(C)(C)C)o2)CC1)S(C)(=O)=O the result was A: 17.12%; B: -3.419%. With CCN(CC)CCNCc1cc(O)c2cc(C)ccc2n1 the screen gave A: 13.95%; B: -1.56%.

Some entries from above, unchanged:

structure	A	B
O=C(CCc1nc2cccnc2[nH]1)Nc1ccc2c(c1)OCC(=O)N2	28.09%	2.994%
O=C(CCn1cc(Cl)cn1)Nc1nncs1	20.59%	11.79%
O=C(c1ccco1)N1C[C@@H]2CN(c3ccccn3)C[C@@H]2C1	19.42%	9.297%
CCC(=O)NCc1cc(Br)c(OC)c(OC)c1	18.45%	-2.131%
CC[C@@]1(O)CCN(C(=O)CCc2cnn(C)c2)C[C@H]1O	8.219%	-1.933%

Data taken from ChEMBL document CHEMBL3988442, “University of Dundee, Small-Polar-MMV Screening Library” (2021).